# Test results reported in article PMC8384837.
# Changes are numbered by the printed parent chain. Some of the results follow. For some assays here: At the low end of the ranking the order means little.
# What was measured:
# Settings in all cases: yeast three-hybrid, YBZ-1, SC-Leu-His + 0.5 mM 3-AT, 4 days
# [1] = target: T1, PUM1 PUF domain R3-MSR C935M + R936S + Q939R (UniProt Q14671)
# T1 sequence: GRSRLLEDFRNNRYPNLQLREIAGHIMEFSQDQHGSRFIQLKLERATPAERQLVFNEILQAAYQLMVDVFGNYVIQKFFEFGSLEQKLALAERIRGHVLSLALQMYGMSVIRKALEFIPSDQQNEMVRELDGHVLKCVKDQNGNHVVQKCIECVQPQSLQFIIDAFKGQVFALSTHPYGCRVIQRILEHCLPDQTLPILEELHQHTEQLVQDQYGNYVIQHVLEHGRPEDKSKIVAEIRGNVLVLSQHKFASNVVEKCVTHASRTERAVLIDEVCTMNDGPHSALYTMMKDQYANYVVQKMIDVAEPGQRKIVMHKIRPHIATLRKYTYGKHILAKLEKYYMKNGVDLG
# [2] = target: T2, PUM1 PUF domain R3-MWP C935M + R936W + Q939P (UniProt Q14671)
# T2 sequence: T1 sequence with S109W, R112P
# [3] = target: T3, PUM1 PUF domain R3-MWS C935M + R936W + Q939S (UniProt Q14671)
# T3 sequence: T1 sequence with S109W, R112S
# [4] = target: T4, PUM1 PUF domain R3-NPR C935N + R936P + Q939R (Homo sapiens) (UniProt Q14671)
# T4 sequence: T1 sequence with M108N, S109P
# [5] = target: T5, PUM1 PUF domain R3-NPV C935N + R936P + Q939V (UniProt Q14671)
# T5 sequence: T1 sequence with M108N, S109P, R112V
# [6] = target: T6, PUM1 PUF domain R3-NSL C935N + R936S + Q939L (UniProt Q14671)
# T6 sequence: T1 sequence with M108N, R112L
# [7] = target: T7, PUM1 PUF domain R3-PFV C935P + R936F + Q939V (UniProt Q14671)
# T7 sequence: T1 sequence with M108P, S109F, R112V
# [8] = target: T8, PUM1 PUF domain R3-PHE C935P + R936H + Q939E (UniProt Q14671)
# T8 sequence: T1 sequence with M108P, S109H, R112E
# [9] = target: T9, PUM1 PUF domain R3-PHQ C935P + R936H (UniProt Q14671)
# T9 sequence: T1 sequence with M108P, S109H, R112Q
# [10] = target: T10, PUM1 PUF domain R3-PRE C935P + Q939E (UniProt Q14671)
# T10 sequence: T1 sequence with M108P, S109R, R112E
# [11] = target: T11, PUM1 PUF domain R3-PWG C935P + R936W + Q939G (UniProt Q14671)
# T11 sequence: T1 sequence with M108P, S109W, R112G
# [12] = target: T12, PUM1 PUF domain R3-PWH C935P + R936W + Q939H (UniProt Q14671)
# T12 sequence: T1 sequence with M108P, S109W, R112H
# [13] = target: T13, PUM1 PUF domain R3-PWL C935P + R936W + Q939L (UniProt Q14671)
# T13 sequence: T1 sequence with M108P, S109W, R112L
# [14] = target: T14, PUM1 PUF domain R3-PWN C935P + R936W + Q939N (UniProt Q14671)
# T14 sequence: T1 sequence with M108P, S109W, R112N
# [15] = target: T15, PUM1 PUF domain R3-PWS C935P + R936W + Q939S (Homo sapiens) (UniProt Q14671)
# T15 sequence: T1 sequence with M108P, S109W, R112S
# [16] = target: T16, PUM1 PUF domain R3-PWV C935P + R936W + Q939V (UniProt Q14671)
# T16 sequence: T1 sequence with M108P, S109W, R112V
# [17] = target: T17, PUM1 PUF domain R3-QPE C935Q + R936P + Q939E (UniProt Q14671)
# T17 sequence: T1 sequence with M108Q, S109P, R112E
# [18] = target: T18, PUM1 PUF domain R3-QPR C935Q + R936P + Q939R (UniProt Q14671)
# T18 sequence: T1 sequence with M108Q, S109P
# [19] = target: T19, PUM1 PUF domain R3-QRS C935Q + Q939S (UniProt Q14671)
# T19 sequence: T1 sequence with M108Q, S109R, R112S
# [20] = target: T20, PUM1 PUF domain R3-QRV C935Q + Q939V (UniProt Q14671)
# T20 sequence: T1 sequence with M108Q, S109R, R112V
# [21] = target: T21, PUM1 PUF domain R3-RAA C935R + R936A + Q939A (UniProt Q14671)
# T21 sequence: T1 sequence with M108R, S109A, R112A
# [22] = target: T22, PUM1 PUF domain R3-RAC C935R + R936A + Q939C (UniProt Q14671)
# T22 sequence: T1 sequence with M108R, S109A, R112C
# [23] = target: T23, PUM1 PUF domain R3-RAD C935R + R936A + Q939D (UniProt Q14671)
# T23 sequence: T1 sequence with M108R, S109A, R112D
# [24] = target: T24, PUM1 PUF domain R3-RAF C935R + R936A + Q939F (UniProt Q14671)
# T24 sequence: T1 sequence with M108R, S109A, R112F
# [25] = target: T25, PUM1 PUF domain R3-RAG C935R + R936A + Q939G (UniProt Q14671)
# T25 sequence: T1 sequence with M108R, S109A, R112G
# [26] = target: T26, PUM1 PUF domain R3-RAQ C935R + R936A (UniProt Q14671)
# T26 sequence: T1 sequence with M108R, S109A, R112Q
# [27] = target: T27, PUM1 PUF domain R3-RAR C935R + R936A + Q939R (UniProt Q14671)
# T27 sequence: T1 sequence with M108R, S109A
# [28] = target: T28, PUM1 PUF domain R3-RAS C935R + R936A + Q939S (Homo sapiens) (UniProt Q14671)
# T28 sequence: T1 sequence with M108R, S109A, R112S
# [29] = target: T29, PUM1 PUF domain R3-RAT C935R + R936A + Q939T (UniProt Q14671)
# T29 sequence: T1 sequence with M108R, S109A, R112T
sequence,measurement,setting,value
GGCUAGAACUAGUGGAUCCCCCGGCGCCCGGCGGCUCGAGCCCGGGUAAGUGUAACUAGUCUGCAUGCCGCCGGGCGCCAUGCCUGCAGGUCGACUCUAGAAAACAUG,binding signal (log2 enrichment (interaction score)),[1],< -9.99
same,binding signal (log2 enrichment (interaction score)),[2],< -7.98
same,binding signal (log2 enrichment (interaction score)),[3],< -7.31
same,binding signal (log2 enrichment (interaction score)),[4],-1.91
same,binding signal (log2 enrichment (interaction score)),[5],< -7.77
same,binding signal (log2 enrichment (interaction score)),[6],< -8
same,binding signal (log2 enrichment (interaction score)),[7],< -8.35
same,binding signal (log2 enrichment (interaction score)),[8],-4.61
same,binding signal (log2 enrichment (interaction score)),[9],-2.77
same,binding signal (log2 enrichment (interaction score)),[10],< -8.19
same,binding signal (log2 enrichment (interaction score)),[11],< -7.16
same,binding signal (log2 enrichment (interaction score)),[12],< -8.1
same,binding signal (log2 enrichment (interaction score)),[13],-4.02
same,binding signal (log2 enrichment (interaction score)),[14],-3.38
same,binding signal (log2 enrichment (interaction score)),[15],-1.38
same,binding signal (log2 enrichment (interaction score)),[16],< -6.89
same,binding signal (log2 enrichment (interaction score)),[17],< -8.92
same,binding signal (log2 enrichment (interaction score)),[18],-2.74
same,binding signal (log2 enrichment (interaction score)),[19],< -8.11
same,binding signal (log2 enrichment (interaction score)),[20],< -6.88
same,binding signal (log2 enrichment (interaction score)),[21],-5.35
same,binding signal (log2 enrichment (interaction score)),[22],< -6.6
same,binding signal (log2 enrichment (interaction score)),[23],< -9.27
same,binding signal (log2 enrichment (interaction score)),[24],< -8.42
same,binding signal (log2 enrichment (interaction score)),[25],-5.09
same,binding signal (log2 enrichment (interaction score)),[26],< -6.36
same,binding signal (log2 enrichment (interaction score)),[27],-4.49
same,binding signal (log2 enrichment (interaction score)),[28],-1.52
same,binding signal (log2 enrichment (interaction score)),[29],< -6.73

# 2 entries drawn at random from the list so far:
sequence,measurement,setting,value
GGCUAGAACUAGUGGAUCCCCCGGCGCCCGGCGGCUCGAGCCCGGGUAAGUGUAACUAGUCUGCAUGCCGCCGGGCGCCAUGCCUGCAGGUCGACUCUAGAAAACAUG,binding signal (log2 enrichment (interaction score)),[27],-4.49
same,binding signal (log2 enrichment (interaction score)),[25],-5.09
